These are yes or no findings as the source states them, for the method shown. In cells and extracts the contact can be indirect. For part of these data: Sequences can lack the tags named with a protein.
Columns and labels:
Experiment in all cases: co-IP; Flag-tagged proteins expressed in 293T cells and immunoprecipitated with anti-Flag antibody; endogenous partners detected by western blot
[1] = target: Flag-PTIP (UniProt Q6ZW49)
[2] = target: T1, Flag-Set9 (UniProt Q8WTS6)
T1 sequence: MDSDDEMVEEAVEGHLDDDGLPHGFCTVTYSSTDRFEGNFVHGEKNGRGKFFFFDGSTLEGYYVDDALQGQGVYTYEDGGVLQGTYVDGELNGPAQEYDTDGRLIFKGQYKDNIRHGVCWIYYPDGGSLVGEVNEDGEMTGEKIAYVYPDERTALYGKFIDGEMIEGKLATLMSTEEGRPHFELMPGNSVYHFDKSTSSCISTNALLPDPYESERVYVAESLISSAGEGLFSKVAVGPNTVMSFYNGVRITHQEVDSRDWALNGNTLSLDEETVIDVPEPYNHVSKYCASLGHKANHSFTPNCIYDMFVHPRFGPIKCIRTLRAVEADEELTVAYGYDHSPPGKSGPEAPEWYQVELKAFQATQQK

The chains behind the UniProt entries cited, without tags or fusion partners.
UniProt Q6ZW49: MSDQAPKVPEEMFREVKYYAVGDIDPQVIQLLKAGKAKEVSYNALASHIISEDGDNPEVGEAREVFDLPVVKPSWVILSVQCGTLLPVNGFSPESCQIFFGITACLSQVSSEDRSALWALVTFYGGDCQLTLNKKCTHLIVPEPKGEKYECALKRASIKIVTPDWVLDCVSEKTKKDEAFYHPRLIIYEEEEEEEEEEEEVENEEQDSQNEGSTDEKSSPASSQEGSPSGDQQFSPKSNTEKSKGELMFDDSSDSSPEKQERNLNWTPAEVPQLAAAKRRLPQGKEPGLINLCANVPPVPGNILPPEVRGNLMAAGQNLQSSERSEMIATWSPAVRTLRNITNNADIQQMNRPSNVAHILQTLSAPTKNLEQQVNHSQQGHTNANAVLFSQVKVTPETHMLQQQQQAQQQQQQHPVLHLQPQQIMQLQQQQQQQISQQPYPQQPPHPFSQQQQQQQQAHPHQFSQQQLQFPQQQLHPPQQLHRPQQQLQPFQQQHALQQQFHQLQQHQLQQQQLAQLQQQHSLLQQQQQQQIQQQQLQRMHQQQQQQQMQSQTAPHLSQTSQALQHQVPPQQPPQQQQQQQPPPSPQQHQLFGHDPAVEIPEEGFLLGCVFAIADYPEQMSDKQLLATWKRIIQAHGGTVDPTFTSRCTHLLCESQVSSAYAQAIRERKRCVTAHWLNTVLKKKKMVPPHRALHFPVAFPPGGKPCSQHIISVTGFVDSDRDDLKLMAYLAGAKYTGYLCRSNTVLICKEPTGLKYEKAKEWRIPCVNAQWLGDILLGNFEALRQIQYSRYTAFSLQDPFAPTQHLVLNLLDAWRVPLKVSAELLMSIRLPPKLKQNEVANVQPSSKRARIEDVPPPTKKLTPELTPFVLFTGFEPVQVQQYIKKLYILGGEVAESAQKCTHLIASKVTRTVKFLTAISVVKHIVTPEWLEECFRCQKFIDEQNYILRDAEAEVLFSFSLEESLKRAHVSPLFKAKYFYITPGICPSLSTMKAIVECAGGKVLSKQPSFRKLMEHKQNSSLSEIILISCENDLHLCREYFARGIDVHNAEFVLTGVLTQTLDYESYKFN
UniProt Q96RG2: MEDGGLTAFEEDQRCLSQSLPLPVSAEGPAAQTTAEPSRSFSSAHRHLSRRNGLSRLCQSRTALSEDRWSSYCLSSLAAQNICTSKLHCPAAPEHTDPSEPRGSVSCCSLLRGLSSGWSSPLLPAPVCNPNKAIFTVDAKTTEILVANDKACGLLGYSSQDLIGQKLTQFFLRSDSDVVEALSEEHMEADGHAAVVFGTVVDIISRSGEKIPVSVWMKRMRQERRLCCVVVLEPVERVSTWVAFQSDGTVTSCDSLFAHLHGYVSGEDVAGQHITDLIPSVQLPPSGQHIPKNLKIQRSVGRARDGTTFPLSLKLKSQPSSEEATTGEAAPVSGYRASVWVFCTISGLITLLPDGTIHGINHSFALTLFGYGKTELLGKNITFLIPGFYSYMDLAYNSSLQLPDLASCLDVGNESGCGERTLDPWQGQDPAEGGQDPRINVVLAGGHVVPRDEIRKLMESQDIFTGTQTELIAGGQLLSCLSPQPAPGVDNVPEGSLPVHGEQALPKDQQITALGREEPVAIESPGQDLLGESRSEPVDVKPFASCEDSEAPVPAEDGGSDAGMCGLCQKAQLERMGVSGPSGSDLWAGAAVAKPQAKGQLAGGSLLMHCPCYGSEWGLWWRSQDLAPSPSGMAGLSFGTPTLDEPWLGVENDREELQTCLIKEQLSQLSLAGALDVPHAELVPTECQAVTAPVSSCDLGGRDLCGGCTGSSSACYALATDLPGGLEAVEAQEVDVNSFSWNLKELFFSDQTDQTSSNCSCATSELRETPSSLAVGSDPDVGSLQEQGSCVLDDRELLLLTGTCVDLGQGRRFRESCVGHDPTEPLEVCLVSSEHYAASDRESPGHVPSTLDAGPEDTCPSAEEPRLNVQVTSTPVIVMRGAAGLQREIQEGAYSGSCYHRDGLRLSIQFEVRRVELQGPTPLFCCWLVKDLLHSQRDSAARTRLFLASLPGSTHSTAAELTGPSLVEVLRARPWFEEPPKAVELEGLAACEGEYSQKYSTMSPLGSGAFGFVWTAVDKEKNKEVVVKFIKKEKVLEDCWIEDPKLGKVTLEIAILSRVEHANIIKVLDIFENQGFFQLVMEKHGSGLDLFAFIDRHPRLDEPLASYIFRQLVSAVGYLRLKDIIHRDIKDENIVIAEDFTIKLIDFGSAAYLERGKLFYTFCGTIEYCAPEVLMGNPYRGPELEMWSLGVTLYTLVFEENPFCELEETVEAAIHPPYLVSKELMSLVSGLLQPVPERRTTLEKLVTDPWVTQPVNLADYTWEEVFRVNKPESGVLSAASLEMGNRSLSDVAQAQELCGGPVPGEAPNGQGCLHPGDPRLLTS

[3] = target: T2, Flag-Menin (UniProt O00255)
T2 sequence: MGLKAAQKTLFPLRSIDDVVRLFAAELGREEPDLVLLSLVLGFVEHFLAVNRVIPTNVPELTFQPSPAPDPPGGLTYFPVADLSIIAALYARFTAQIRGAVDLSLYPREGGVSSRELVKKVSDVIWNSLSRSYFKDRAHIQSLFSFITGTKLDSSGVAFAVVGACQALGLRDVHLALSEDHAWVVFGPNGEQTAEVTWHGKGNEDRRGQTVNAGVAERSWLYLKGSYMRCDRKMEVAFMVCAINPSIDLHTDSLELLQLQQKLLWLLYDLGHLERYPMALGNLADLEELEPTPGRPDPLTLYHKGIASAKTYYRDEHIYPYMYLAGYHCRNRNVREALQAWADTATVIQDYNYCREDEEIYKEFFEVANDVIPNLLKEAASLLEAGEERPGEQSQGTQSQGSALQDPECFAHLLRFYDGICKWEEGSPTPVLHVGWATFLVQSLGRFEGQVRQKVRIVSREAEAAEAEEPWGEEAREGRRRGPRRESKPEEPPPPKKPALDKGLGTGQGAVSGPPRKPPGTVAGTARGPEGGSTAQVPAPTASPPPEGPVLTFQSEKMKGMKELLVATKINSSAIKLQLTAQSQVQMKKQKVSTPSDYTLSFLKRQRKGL

Measured: binding

Pask, endogenous in HEK293T cells (from UniProt Q96RG2 1-1323) (enzyme)
no binding: all assays above

— article PMC5035144
